No constants are given. Whether binding was seen depends on the method and setting. Binding seen in cells or lysates may run through a third protein.
T1: Xenopus laevis ZC3HC1 (zinc finger C3HC-type protein 1), soluble, dephosphorylated, in NE-assembly-competent egg extract (X. laevis (endogenous in egg extract)) (UniProt Q6P7H4)
T1 sequence: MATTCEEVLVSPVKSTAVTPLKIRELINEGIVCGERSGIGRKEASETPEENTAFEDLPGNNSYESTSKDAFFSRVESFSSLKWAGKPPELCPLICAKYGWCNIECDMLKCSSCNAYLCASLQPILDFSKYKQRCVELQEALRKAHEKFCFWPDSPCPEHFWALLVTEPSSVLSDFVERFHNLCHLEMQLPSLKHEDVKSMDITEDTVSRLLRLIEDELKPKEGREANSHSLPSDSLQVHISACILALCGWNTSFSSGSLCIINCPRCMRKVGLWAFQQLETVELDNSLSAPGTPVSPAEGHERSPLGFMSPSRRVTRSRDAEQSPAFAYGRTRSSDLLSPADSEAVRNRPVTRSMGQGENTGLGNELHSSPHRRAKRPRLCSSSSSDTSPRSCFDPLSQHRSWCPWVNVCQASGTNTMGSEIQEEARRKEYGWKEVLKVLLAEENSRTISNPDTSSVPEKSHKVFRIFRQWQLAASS


Legend:
[1] = molecular target: T1, Xenopus laevis ZC3HC1 (zinc finger C3HC-type protein 1), soluble, dephosphorylated, in NE-assembly-competent egg extract (X. laevis (endogenous in egg extract)); assay: co-IP; native proteins; antibodies covalently bound to Protein A-coupled magnetic Dynabeads; 250,000 x g supernatants of X. laevis egg extracts competent for post-mitotic nuclear assembly, diluted in four volumes IP buffer (41.5 mM KCl, 8.5 mM NaCl, 5 mM MgCl2, 2.5 mM EGTA, 10% sucrose, 20 mM HEPES pH 7.25), 30 min at RT; washes with 0.02% Tween-20; elution with 100 mM glycine pH 2.5; immunoblot
[2] = molecular target: Xenopus laevis NUP62 (X. laevis (endogenous in egg extract)); assay: as above

Row | binding [1] | binding [2] | Molecule
1 | no binding | – | Xenopus laevis NUP62 (X. laevis (endogenous in egg extract))
2 | – | no binding | Xenopus laevis ZC3HC1 (zinc finger C3HC-type protein 1), soluble, dephosphorylated, in NE-assembly-competent egg extract (protein, UniProt Q6P7H4 1-477) MATTCEEVLVSPVKSTAVTPLKIRELINEGIVCGERSGIGRKEASETPEENTAFEDLPGNNSYESTSKDAFFSRVESFSSLKWAGKPPELCPLICAKYGWCNIECDMLKCSSCNAYLCASLQPILDFSKYKQRCVELQEALRKAHEKFCFWPDSPCPEHFWALLVTEPSSVLSDFVERFHNLCHLEMQLPSLKHEDVKSMDITEDTVSRLLRLIEDELKPKEGREANSHSLPSDSLQVHISACILALCGWNTSFSSGSLCIINCPRCMRKVGLWAFQQLETVELDNSLSAPGTPVSPAEGHERSPLGFMSPSRRVTRSRDAEQSPAFAYGRTRSSDLLSPADSEAVRNRPVTRSMGQGENTGLGNELHSSPHRRAKRPRLCSSSSSDTSPRSCFDPLSQHRSWCPWVNVCQASGTNTMGSEIQEEARRKEYGWKEVLKVLLAEENSRTISNPDTSSVPEKSHKVFRIFRQWQLAASS
